Results published in paper PMC7862700.
The list shows a part of the results, in another mix than the full data. At the low end of the ranking the order means little.

By UniProt entry, the sequences of proteins in these tests, tags left out. Where a name states a change or a piece, a line headed by the entry shows the natural chain unless it says otherwise.
UniProt Q01892: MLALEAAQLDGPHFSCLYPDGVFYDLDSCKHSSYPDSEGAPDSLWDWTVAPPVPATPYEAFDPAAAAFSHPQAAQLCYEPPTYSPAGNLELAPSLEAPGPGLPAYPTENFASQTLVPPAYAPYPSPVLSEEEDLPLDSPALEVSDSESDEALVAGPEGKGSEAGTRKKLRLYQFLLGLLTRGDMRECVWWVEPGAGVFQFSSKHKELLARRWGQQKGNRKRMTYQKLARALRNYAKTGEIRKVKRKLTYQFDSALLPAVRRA
UniProt P41161: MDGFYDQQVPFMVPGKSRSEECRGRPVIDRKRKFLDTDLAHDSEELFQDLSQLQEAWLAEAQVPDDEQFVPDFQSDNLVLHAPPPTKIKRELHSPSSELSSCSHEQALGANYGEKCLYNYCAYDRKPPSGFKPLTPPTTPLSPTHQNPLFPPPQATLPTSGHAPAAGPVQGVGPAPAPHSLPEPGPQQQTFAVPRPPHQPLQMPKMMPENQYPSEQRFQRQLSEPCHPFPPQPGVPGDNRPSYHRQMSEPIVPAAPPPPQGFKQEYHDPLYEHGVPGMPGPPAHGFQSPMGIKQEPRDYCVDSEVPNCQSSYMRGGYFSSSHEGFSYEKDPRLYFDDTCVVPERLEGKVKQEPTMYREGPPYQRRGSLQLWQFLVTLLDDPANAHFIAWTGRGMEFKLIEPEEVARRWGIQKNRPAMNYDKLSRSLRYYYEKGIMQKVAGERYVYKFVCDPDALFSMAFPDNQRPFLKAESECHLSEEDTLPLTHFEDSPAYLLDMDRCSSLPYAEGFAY
UniProt Q99607: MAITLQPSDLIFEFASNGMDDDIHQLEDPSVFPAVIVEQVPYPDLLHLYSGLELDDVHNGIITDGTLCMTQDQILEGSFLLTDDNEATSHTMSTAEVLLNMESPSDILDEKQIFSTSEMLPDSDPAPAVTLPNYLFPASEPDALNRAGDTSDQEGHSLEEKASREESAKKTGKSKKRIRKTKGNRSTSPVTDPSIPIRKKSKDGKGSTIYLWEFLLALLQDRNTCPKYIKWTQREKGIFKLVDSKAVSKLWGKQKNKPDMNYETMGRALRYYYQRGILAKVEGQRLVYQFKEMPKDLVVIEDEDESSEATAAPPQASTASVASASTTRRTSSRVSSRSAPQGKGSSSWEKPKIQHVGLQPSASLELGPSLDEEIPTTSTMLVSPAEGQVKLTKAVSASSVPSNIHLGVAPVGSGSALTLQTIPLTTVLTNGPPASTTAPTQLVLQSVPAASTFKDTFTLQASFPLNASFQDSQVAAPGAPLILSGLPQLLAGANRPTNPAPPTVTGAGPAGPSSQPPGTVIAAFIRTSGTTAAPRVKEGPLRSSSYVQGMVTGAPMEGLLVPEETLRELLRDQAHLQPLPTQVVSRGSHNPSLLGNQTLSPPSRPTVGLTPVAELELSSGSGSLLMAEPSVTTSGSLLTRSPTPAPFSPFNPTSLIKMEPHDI

Columns and labels:
Test in all cases: DAPPL (digital affinity profiling via proximity ligation, sequencing)
Details in all cases: 10 mM Tris-HCl pH 7.5, 50 mM NaCl, 1 mM DTT, 4% glycerol, room temperature, 30 min; GST-TFs on glutathione beads, 16-mer random dsDNA library, 0.1% …; high values mean tight binding; double strand, one strand shown; scale: fold enrichment (6-mer frequency, TF over GST control)
FLI1 = molecular target: T1, FLI1 (UniProt Q01543)
T1 sequence: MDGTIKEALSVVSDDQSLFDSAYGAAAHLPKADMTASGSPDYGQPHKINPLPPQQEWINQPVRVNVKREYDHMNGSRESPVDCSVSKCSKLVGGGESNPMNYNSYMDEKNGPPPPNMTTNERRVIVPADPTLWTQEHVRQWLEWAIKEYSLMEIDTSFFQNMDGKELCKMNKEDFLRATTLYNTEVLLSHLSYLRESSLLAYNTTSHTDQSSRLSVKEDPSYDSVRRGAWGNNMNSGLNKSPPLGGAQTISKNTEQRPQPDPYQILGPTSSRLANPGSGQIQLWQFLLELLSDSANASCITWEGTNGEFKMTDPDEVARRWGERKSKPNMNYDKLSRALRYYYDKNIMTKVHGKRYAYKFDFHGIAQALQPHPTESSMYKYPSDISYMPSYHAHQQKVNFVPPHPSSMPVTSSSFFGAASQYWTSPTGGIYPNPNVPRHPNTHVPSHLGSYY

EHF = molecular target: T2, EHF (UniProt Q9NZC4)
T2 sequence: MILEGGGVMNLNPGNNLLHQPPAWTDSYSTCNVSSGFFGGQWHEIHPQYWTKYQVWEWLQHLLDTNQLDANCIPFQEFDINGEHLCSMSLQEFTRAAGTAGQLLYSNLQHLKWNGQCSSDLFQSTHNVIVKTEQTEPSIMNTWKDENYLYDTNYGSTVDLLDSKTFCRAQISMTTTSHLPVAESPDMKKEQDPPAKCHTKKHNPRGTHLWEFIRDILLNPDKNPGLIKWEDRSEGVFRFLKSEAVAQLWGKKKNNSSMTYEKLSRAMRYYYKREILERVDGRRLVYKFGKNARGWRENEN

SPIB = SPIB (UniProt Q01892)
ETV5 = ETV5 (UniProt P41161)
ELF4 = ELF4 (UniProt Q99607)
ETV2 = molecular target: T3, ETV2 (UniProt O00321)
T3 sequence: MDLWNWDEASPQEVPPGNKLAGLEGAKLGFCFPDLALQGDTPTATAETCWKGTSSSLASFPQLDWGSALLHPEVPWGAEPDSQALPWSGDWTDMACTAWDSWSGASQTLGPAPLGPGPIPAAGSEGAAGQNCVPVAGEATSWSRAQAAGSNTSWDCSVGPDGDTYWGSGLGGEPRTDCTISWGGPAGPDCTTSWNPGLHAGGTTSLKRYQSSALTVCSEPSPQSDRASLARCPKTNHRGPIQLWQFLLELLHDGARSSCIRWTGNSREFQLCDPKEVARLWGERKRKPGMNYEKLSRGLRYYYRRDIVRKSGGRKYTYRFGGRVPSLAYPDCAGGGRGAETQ

ETV3L = molecular target: T4, ETV3L (UniProt Q6ZN32)
T4 sequence: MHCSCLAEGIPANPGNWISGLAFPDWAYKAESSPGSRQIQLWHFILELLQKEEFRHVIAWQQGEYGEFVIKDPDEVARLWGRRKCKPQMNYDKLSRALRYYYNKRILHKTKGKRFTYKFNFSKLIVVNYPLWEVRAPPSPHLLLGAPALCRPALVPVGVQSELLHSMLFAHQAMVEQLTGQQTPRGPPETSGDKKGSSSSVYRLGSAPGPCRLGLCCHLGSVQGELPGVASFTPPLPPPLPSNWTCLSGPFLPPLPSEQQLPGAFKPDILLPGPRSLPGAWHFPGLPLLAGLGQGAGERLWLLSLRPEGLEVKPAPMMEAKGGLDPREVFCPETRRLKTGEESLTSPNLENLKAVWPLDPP

Sequence	binding signal (FLI1)	binding signal (EHF)	binding signal (SPIB)	binding signal (ETV5)	binding signal (ELF4)	binding signal (ETV2)	binding signal (ETV3L)
GCGCTA	0.936	0.901	0.884	0.854	0.961	0.945	0.895
CGTGAG	0.135	0.128	0.11	0.132	0.114	0.13	0.128
AGTCAC	0.788	0.773	0.731	0.78	0.752	0.706	0.777
GTGTCA	0.813	0.822	0.874	0.859	0.847	0.909	0.786
AGAGCA	0.792	0.715	0.695	0.725	0.767	0.827	0.724
GAGATA	0.656	0.651	0.617	0.655	0.665	0.638	0.669
GCGTGT	0.636	0.532	0.573	0.564	0.544	0.556	0.537
AAGAGT	0.879	0.966	0.868	0.885	0.918	0.906	0.842
GACAGT	0.484	0.42	0.465	0.466	0.448	0.509	0.478
AGGCAT	0.816	0.842	0.758	0.78	0.768	0.796	0.882
GAGGAT	0.629	0.547	0.525	0.606	0.568	0.585	0.584
GGCGAG	0.487	0.535	0.508	0.494	0.504	0.524	0.515
GTGTAG	0.661	0.628	0.611	0.634	0.67	0.788	0.654
GGCTGA	0.743	0.835	0.667	0.785	0.791	0.99	0.934
GAGTTA	0.571	0.612	0.582	0.624	0.557	0.554	0.603
ACCGGG	0.496	0.531	0.529	0.536	0.514	0.443	0.498
AGGTGC	0.682	0.632	0.673	0.644	0.683	0.775	0.692
GCGGGA	0.42	0.377	0.362	0.382	0.364	0.344	0.378
GTCGTG	0.425	0.408	0.343	0.394	0.357	0.383	0.46
GAATCG	0.619	0.57	0.616	0.684	0.574	0.476	0.605

Whole records, quoted from the list.
GTGTAG as listed: binding signal (FLI1): 0.661; binding signal (EHF): 0.628; binding signal (SPIB): 0.611; binding signal (ETV5): 0.634; binding signal (ELF4): 0.67; binding signal (ETV2): 0.788; binding signal (ETV3L): 0.654
GCGGGA as listed: binding signal (FLI1): 0.42; binding signal (EHF): 0.377; binding signal (SPIB): 0.362; binding signal (ETV5): 0.382; binding signal (ELF4): 0.364; binding signal (ETV2): 0.344; binding signal (ETV3L): 0.378

Later entries

Sequence	binding signal (FLI1)	binding signal (EHF)	binding signal (SPIB)	binding signal (ETV5)	binding signal (ELF4)	binding signal (ETV2)	binding signal (ETV3L)
GGGCAA	0.863	0.869	0.819	0.902	0.887	0.831	0.908
GGACCG	0.812	0.773	0.874	0.85	0.784	0.825	0.812
ACGGGG	0.686	0.715	0.693	0.666	0.629	0.741	0.604
GGAGGC	0.23	0.245	0.26	0.236	0.229	0.246	0.269
ACGTGG	0.566	0.583	0.639	0.571	0.565	0.542	0.598
CGGGCC	0.785	0.74	0.725	0.77	0.752	0.715	0.724
AGCCTG	0.939	0.884	0.944	0.835	0.821	0.953	0.874
GCACCA	0.886	0.859	0.78	0.832	0.877	0.782	0.892
GGTTAG	0.78	0.753	0.788	0.721	0.748	0.934	0.836
GTCGTC	0.758	0.712	0.777	0.76	0.729	0.823	0.708
GCTGTC	0.9	1	0.875	0.929	0.959	0.856	0.865
GGGGTA	0.746	0.719	0.801	0.726	0.735	0.648	0.681
AGGGGC	0.776	0.773	0.773	0.84	0.863	0.762	0.822
ATCGAG	0.87	0.832	0.832	0.855	0.906	0.784	0.942
CATAGG	0.679	0.742	0.79	0.866	0.739	0.804	0.783
CAGGCA	0.768	0.736	0.748	0.738	0.741	0.725	0.759
AGATAG	0.796	0.812	0.779	0.843	0.833	0.946	0.815
GTCGGT	0.261	0.303	0.301	0.274	0.277	0.295	0.287
TGAGTT	0.423	0.381	0.438	0.416	0.411	0.345	0.41
CCAGAG	0.692	0.692	0.594	0.682	0.705	0.673	0.67

Sequence	binding signal (FLI1)	binding signal (EHF)	binding signal (SPIB)	binding signal (ETV5)	binding signal (ELF4)	binding signal (ETV2)	binding signal (ETV3L)
AACCGT	0.544	0.467	0.503	0.518	0.507	0.5	0.532
TGTGAA	0.84	0.895	0.908	0.849	0.901	0.732	0.824
GGGCAC	0.797	0.748	0.818	0.834	0.806	0.82	0.752
GAGATT	0.64	0.696	0.669	0.634	0.64	0.746	0.712
GATTGA	0.976	0.856	0.925	0.877	0.989	0.846	0.941
CCAGGG	0.653	0.607	0.565	0.607	0.598	0.612	0.615
GAGTCC	0.411	0.397	0.369	0.393	0.398	0.406	0.425
GAGCCG	0.469	0.441	0.428	0.376	0.411	0.381	0.375
CCATGA	0.8	0.865	0.883	0.862	0.877	0.844	0.881
AGTAGG	0.632	0.656	0.596	0.689	0.599	0.7	0.647
CCATGT	0.815	0.879	0.847	0.802	0.844	0.868	0.915
GGTCGA	0.756	0.792	0.781	0.798	0.754	0.827	0.744
CATGTC	0.861	0.791	0.811	0.793	0.852	0.821	0.798
AGGGTC	0.822	0.81	0.901	0.862	0.825	0.839	0.895
GCCAAA	0.862	0.856	0.813	0.925	0.887	0.878	0.877
GACTGG	0.656	0.682	0.665	0.623	0.658	0.678	0.662
AGTGCG	0.852	0.924	0.781	0.911	0.877	0.881	0.854
CACAGA	0.904	0.873	0.848	0.849	0.944	0.943	0.838
GGAGCT	0.568	0.57	0.627	0.618	0.55	0.522	0.6
CGCCAG	0.726	0.608	0.679	0.635	0.688	0.711	0.689
